Mtb growth Cornell: 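Whole-cell assay for inhibitors of Mycobacterium tuberculosis growth, labelled Cornell in the record; the read-out is not stated. The concentration is filed as 10 mM, unlikely as a test dose, so the dose is not known. The record gives no direction; compounds strong in two other growth screens of this library score well above the rest, so higher reads as stronger inhibition. About 53,000 compounds were tested under these conditions; 1.7% (about 900) showed 50% or more at least once.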
Mtb heat-shock: 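Assay on Mycobacterium tuberculosis, filed only as a heat shock assay from Cornell; the read-out is not stated. The concentration is filed as 10 mM, unlikely as a test dose, so the dose is not known. Direction is inferred from retests: higher values go with stronger inhibition. Size under these conditions: about 69,000 compounds, about 930 of them at 50% or above in at least one test.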

Values are the deposited “Percent Effect”, in %. The controls that fix the scale are not given in the record; negative values are as filed. This is an unselected part of the compounds tested. A dash means the value is not listed here; it may have been measured.

Compound | Mtb growth Cornell | Mtb heat-shock
CN(C)c1cncc(C2CCN(C(=O)CO)CC2)n1 | 2.778% | -1.362%
[H][C@@]12CCN(S(=O)(=O)C3CC3)[C@@]1([H])CCN2C(=O)c1ccoc1 | -16.09% | -12.72%
CCc1nc(CN2CCCN(c3ncnc4sccc34)CC2)no1 | - | -6.854%
c1ccc(CNc2ccccc2N2CCCC2)nc1 | 18.15% | 50.65%
Fc1ccc(NCc2ccncc2)c(OC(F)F)c1 | 2.435% | -7.374%
O=C(COc1ccc2c(c1)OCO2)NCc1ccco1 | - | 14.07%
COCCNS(=O)(=O)c1c(C)sc2ccccc12 | 43.83% | 0.2012%
O=C(O)C(F)(F)F.O=C(O)C(F)(F)F.O=C1COC2(COCCN(Cc3cccnc3)C2)CN1c1ccoc1 (stereo not drawn) | 30.02% | -6.302%
Cc1noc(C2CCCN(C(=O)c3cc(Cl)c(Cl)n3C)C2)n1 (stereo not drawn) | 32.14% | -11.73%
Cc1nn(C)c(Cl)c1CNCc1cccnc1N1CCOCC1.Cl | -9.026% | -16.41%
O=C(Nc1ccccc1)c1ccc(NCc2ccncc2)nn1 | 71.71% | 12.82%
[H][C@@]12CN(Cc3cccnc3)C(=O)N1CCN(S(=O)(=O)c1ccccc1)C2 | -16.21% | 2.403%
Cc1noc([C@@H]2C[C@H](NC(=O)NC(C)C)CN2C)n1 | -18.75% | -29.01%
CSCC(C)(O)CNC(=O)c1cc(Br)ccc1Cl (stereo not drawn) | -14.84% | -7.618%
Cc1ccnc(NC(=O)C2(n3cnnn3)CCCCC2)c1 | 22.92% | -14.84%
Cc1ncsc1C(=O)N1CCn2nc(CN3CCSCC3)cc2C1 | 6.816% | -5.919%
CC(C)N(C)Cc1cnc2n1CCN(Cc1cccc(C#N)c1)C2 | - | -19.15%
CN(C)c1ncccc1CNS(=O)(=O)c1ccccc1Cl | - | -13.69%
CCC(Oc1ccccc1)c1nn2c(CN(CC)CC)nnc2s1 (stereo not drawn) | 13.69% | 33.65%
c1ccc2nc(N3CCOC(Cn4cncn4)C3)cnc2c1 (stereo not drawn) | - | -13.9%
O=C(CN1CCOc2ccc(Cl)cc21)NCc1ncc[nH]1 | - | -38.51%
NS(=O)(=O)N1CCc2ccc(NC(=O)CC(F)(F)F)cc21 | -24.86% | -7.696%
NC(=O)CN1CCC(NC(=O)N2CCCC2c2ccncc2)CC1 (stereo not drawn) | -25.32% | 15.53%
OC1(CNc2cccc(F)c2)CCNCC1 | -32.27% | 10.67%
Cc1nn(C)c(N2CCOCC2)c1CNCc1ccnn1C | - | 5.999%
Cc1c(CN2CCC(C(=O)O)(n3cccn3)CC2)oc2ccccc12 | -1.551% | 1.161%
CCN(CC1CN(Cc2nccn2CC)CCO1)c1cccnn1 (stereo not drawn) | -2.247% | -1.972%
CC(=O)NCCCOc1c(C)cccc1Cl | -40.49% | 16.73%
CS(=O)(=O)N1CCC(C(=O)NCCCn2cc(Cl)cn2)CC1 | 35.74% | 7.667%
Cc1sc(CS(C)(=O)=O)nc1-c1ccc(Cl)cc1 | -18.73% | -20.36%
COCCC(=O)N1CCCC1c1nc(O)cc(-c2ccccn2)n1 (stereo not drawn) | 3.931% | -6.32%
CNC(=O)N1CCN(C(=O)N(C)C)CC2(CC(=O)N(C)C2)C1 (stereo not drawn) | 15.29% | -1.989%
CC(C)c1nc2c(n1C)CCN(Cc1cccc(OCC(N)=O)c1)C2 | - | -13.93%
Cc1cnc(CN2CCOC(Cn3nc(C)cc3C)C2)cn1 (stereo not drawn) | - | -23.53%
CC(C)(C)c1ncc(C(=O)NCCS(N)(=O)=O)s1 | 31.45% | 1.01%
COc1ccc(Cn2cc(C(=O)N(C)Cc3ccn[nH]3)nn2)cc1 | 22.43% | -14.35%
COc1ccc(CN(C)[C@@H]2CN(C(=O)c3ccccc3)C[C@H]2O)cc1 | 23.06% | -7.463%
CC(=O)N1CC2(CCCN(Cc3ccc(Cl)cc3)C2)Cc2ccccc21 (stereo not drawn) | - | 12.76%
CC1CN(c2ncccc2C(=O)Nc2cccc3c2CCCC3)CCN1 (stereo not drawn) | 4.131% | 23.86%
COc1ccc(OC)c(CNC(=O)N2CCC(n3cncn3)CC2)c1 | -74.55% | -19.36%
CC(C)c1ncc(CN2C[C@@H](CN3CCCN(C)CC3)[C@@H](CO)C2)cn1 | - | 13.5%
Cc1nc(C)n(CC2CN(CCOc3ccc(C#N)cc3)CCO2)n1 (stereo not drawn) | 9.294% | -16.1%
Cc1occc1C(=O)N1CCCC(c2nncn2C)C1 (stereo not drawn) | - | -13.57%
CCOCCN1CCN(CC(=O)N2CCC2)CC1CC (stereo not drawn) | -31.32% | -3.291%
FC(F)CN1CCOC(Cn2cccn2)C1 (stereo not drawn) | - | -21.68%
CC(C)NC(=O)C(NC(=O)N1CCN(c2ccc(Cl)cc2)CC1)C(C)C (stereo not drawn) | 76.86% | 12.56%
COCCN1C[C@@H](C)[C@@]2(COCCN(C(=O)c3ccccn3)C2)C1.O=C(O)C(F)(F)F.O=C(O)C(F)(F)F | 24.6% | -16.66%
N#Cc1ncn(CC(=O)N2CCCC2c2cccs2)n1 (stereo not drawn) | 22.53% | 4.611%
CCc1ccccc1OC1CN(CC2CCOC2)C1 (stereo not drawn) | -2.047% | -25.11%
COc1cc(C(=O)NCc2cc(N3CCOCC3)ncn2)ccn1 | -16.59% | -45.78%
CCOCC1CN(C2CCCC2)Cc2cnn(CC3CCOCC3)c21.O=C(O)C(F)(F)F.O=C(O)C(F)(F)F (stereo not drawn) | 10.61% | -13.36%
CCc1noc(CN2CCN(C(=O)C3CC3)CC2)n1 | - | -2.479%
CCn1cc(CN2CCCC2c2nc(-c3ccccc3)no2)cc1C#N (stereo not drawn) | 8.033% | -13%
Cc1nc(CCNC2CCN(Cc3ccccc3)C2)sc1C (stereo not drawn) | 2.096% | -10.21%
CCn1ncc2c1C(COC)N(C(=O)Cc1cccs1)CC2 (stereo not drawn) | -0.7043% | 7.15%
[H][C@@]12C[C@@H](c3nnc(C4CC4)o3)O[C@]1([H])CN(C(=O)c1cscn1)C2 | 11.05% | 13.63%
COc1ccc2c(c1)c(-c1nc(C)ncc1CN)cn2C | 21.15% | 1.945%
CCc1nc(CN2CCCN(Cc3noc(C4CC4)n3)CC2)cs1 | 11.8% | 67.89%
COc1ccc(CCC(=O)N(C)CCN2CCOCC2)cc1OC | 0.2586% | -0.954%
CCn1cc2c(n1)CN(Cc1ccc(F)cc1)CC2COCC1CC1.O=C(O)C(F)(F)F (stereo not drawn) | 11.94% | 1.548%
CNCC(=O)Nc1cccc(-c2cnc(NCCO)nc2)c1 | -1.022% | -10.2%
Cc1cc(C)nc(C2CCN(C(=O)c3cnc(N(C)C)nc3)C2)n1 (stereo not drawn) | -6.759% | -13.35%
CCN1CC2(CC1=O)CN(C(C)=O)CCN(C(=O)c1ccco1)C2 (stereo not drawn) | 20.57% | -3.667%
[H][C@@]12COC[C@]1(c1nc(C)no1)CN(C(=O)Cc1ccsc1)C2 | -18.69% | 9.725%
CC(CNC(=O)c1cnc[nH]1)Oc1ccccc1Br (stereo not drawn) | -28.94% | -22.44%
O=C(CN1C(=O)c2ccccc2C1=O)N1CCOC2(CCOCC2)C1 | 5.685% | 1.215%
CNC(=O)c1ccc(-c2ccc(CNC(=O)COC)cc2)nc1C | -2.94% | 15.25%
O=C(CNc1cc(-n2cnnn2)ccc1F)NCc1ccccc1 | 76.98% | -10.2%
Cc1cnn(CC2CCCN2CC(=O)Nc2nncs2)c1 (stereo not drawn) | 17.09% | -6.011%

Source: ChEMBL document CHEMBL3988442, “University of Dundee, Small-Polar-MMV Screening Library” (2021).